Data taken from patent publication US11230581B2, “Peptides and combination of peptides for use in immunotherapy against ovarian cancer and other cancers” (Immatics Biotechnologies GmbH, priority 2015, dated 2022).

System: additional tumor types
Assay: LC-MS detection and over-presentation of the peptides on additional tumor types, cell lines and primary cultures
Set-up: species or system human
Conditions: for Additional organs/cancerous diseases: additional tumor types with over-presentation on more than 5% of the measured tumor samples, or presentation on more than 5% with ratio of geometric means tumor vs normal tissues larger than 3; for Other relevant organs/ cancerous diseases: Table 4A: additional tumor types on which the peptide was found, over-presented on more than 5% of measured tumor samples, or presented on more than 5% with ratio of geometric means tumor vs normal tissues larger than 3
[1] = cell lines and primary cultures
[2] = leukocytic leukemia cancers (FIG. 1D: leukemias)

ALWDIETGQQTTT (listed as Homo sapiens) [SEQ ID NO.: 560]
number of samples with detectable presentation of the peptide (brain cancers): 1 | number of samples with detectable presentation of the peptide (cancer tissues, total): 26 | number of samples with detectable presentation of the peptide [1]: 5 | number of samples with detectable presentation of the peptide (esophageal and stomach cancer): 1 | number of samples with detectable presentation of the peptide (esophageal cancers): 1 | number of samples with detectable presentation of the peptide (gallbladder cancer): 1 | number of samples with detectable presentation of the peptide (head and neck cancers): 2 | number of samples with detectable presentation of the peptide [2]: 1 | number of samples with detectable presentation of the peptide (liver cancers): 1 | number of samples with detectable presentation of the peptide (lung cancers): 5 | number of samples with detectable presentation of the peptide (lymph node cancers): 6 | number of samples with detectable presentation of the peptide (prostate cancers): 1 | number of samples with detectable presentation of the peptide (skin cancers): 1 | number of samples with detectable presentation of the peptide (urinary bladder cancers): 1 | number of samples with detectable presentation of the peptide (uterus cancers): 1

417 (NLQDTEYNL; listed as Homo sapiens) [compound 417]
Additional organs/cancerous diseases: CLL, AML, NHL

293 (GLGELQELYL; listed as Homo sapiens) [compound 293]
Additional organs/cancerous diseases: AML, NHL

620 (KLLNKIYEA; listed as Homo sapiens) [compound 620]
Other relevant organs/ cancerous diseases: Brain Cancer | Additional organs/cancerous diseases: BRCA, AML

324 (FLYDEIEAEV; listed as Homo sapiens) [compound 324]
Other relevant organs/ cancerous diseases: Leukemia | Additional organs/cancerous diseases: CLL

317 (SLAALVVHV; listed as Homo sapiens) [compound 317]
Other relevant organs/ cancerous diseases: Esophageal Cancer, Urinary bladder Cancer | Additional organs/cancerous diseases: NSCLC, Gallbladder Cancer and Bile Duct Cancer, HNSCC

YLNHLEPPV (listed as Homo sapiens) [SEQ ID NO.: 166]
number of samples with detectable presentation of the peptide (brain cancers): 3 | number of samples with detectable presentation of the peptide (breast cancers): 1 | number of samples with detectable presentation of the peptide (cancer tissues, total): 20 | number of samples with detectable presentation of the peptide [1]: 2 | number of samples with detectable presentation of the peptide (esophageal cancers): 1 | number of samples with detectable presentation of the peptide [2]: 3 | number of samples with detectable presentation of the peptide (liver cancers): 2 | number of samples with detectable presentation of the peptide (lung cancers): 4 | number of samples with detectable presentation of the peptide (lymph node cancers): 2 | number of samples with detectable presentation of the peptide (myeloid cell cancer): 1

362 (TLYGLSVLL; listed as Homo sapiens) [compound 362]
Other relevant organs/ cancerous diseases: BrCa | Additional organs/cancerous diseases: AML

407 (YLMDLINFL; listed as Homo sapiens) [compound 407]
Other relevant organs/ cancerous diseases: PC, Prostate | Additional organs/cancerous diseases: AML

453 (KLLEATSAV; listed as Homo sapiens) [compound 453]
Additional organs/cancerous diseases: SCLC, BRCA, Uterine Cancer, Gallbladder Cancer and Bile Duct Cancer, AML, NHL, HNSCC

366 (RLLDMGETDLML; listed as Homo sapiens) [compound 366]
Other relevant organs/ cancerous diseases: SCLC, Leukemia, Melanoma | Additional organs/cancerous diseases: CLL, Urinary Bladder Cancer, AML, NHL

524 (ALIENLTHQI; listed as Homo sapiens) [compound 524]
Additional organs/cancerous diseases: CLL, Melanoma, NHL

19 (FMVDNEAIYDI; listed as Homo sapiens) [compound 19]
Other relevant organs/ cancerous diseases: SCLC, CRC, HCC, Leukemia, Melanoma, Esophageal Cancer, Urinary bladder Cancer

ALNPEIVSV (listed as Homo sapiens) [SEQ ID NO.: 148]
number of samples with detectable presentation of the peptide [1]: 3 | number of samples with detectable presentation of the peptide (esophageal cancers): 1 | number of samples with detectable presentation of the peptide (head and neck cancers): 2 | number of samples with detectable presentation of the peptide [2]: 1 | number of samples with detectable presentation of the peptide (lung cancers): 5 | number of samples with detectable presentation of the peptide (lymph node cancers): 3 | number of samples with detectable presentation of the peptide (skin cancers): 2 | number of samples with detectable presentation of the peptide (urinary bladder cancers): 4

585 (ALWDLAADKQTL; listed as Homo sapiens) [compound 585]
Other relevant organs/ cancerous diseases: Urinary bladder Cancer | Additional organs/cancerous diseases: Melanoma

412 (YLDDLNEGVYI; listed as Homo sapiens) [compound 412]
Other relevant organs/ cancerous diseases: Leukemia, Melanoma | Additional organs/cancerous diseases: BRCA

FLLEDDIHVS (listed as Homo sapiens) [SEQ ID NO.: 38]
number of samples with detectable presentation of the peptide (breast cancers): 2 | number of samples with detectable presentation of the peptide (cancer tissues, total): 28 | number of samples with detectable presentation of the peptide [1]: 1 | number of samples with detectable presentation of the peptide (head and neck cancers): 1 | number of samples with detectable presentation of the peptide [2]: 4 | number of samples with detectable presentation of the peptide (lung cancers): 5 | number of samples with detectable presentation of the peptide (lymph node cancers): 6 | number of samples with detectable presentation of the peptide (myeloid cell cancer): 1 | number of samples with detectable presentation of the peptide (rectum cancers): 1 | number of samples with detectable presentation of the peptide (skin cancers): 3 | number of samples with detectable presentation of the peptide (urinary bladder cancers): 2 | number of samples with detectable presentation of the peptide (uterus cancers): 1

405 (ALYDVFLEV; listed as Homo sapiens) [compound 405]
Other relevant organs/ cancerous diseases: PC, Esophageal Cancer

416 (VLSDIIQNLSV; listed as Homo sapiens) [compound 416]
Additional organs/cancerous diseases: CLL, NHL

422 (FLPKLLLLA; listed as Homo sapiens) [compound 422]
Other relevant organs/ cancerous diseases: BrCa | Additional organs/cancerous diseases: Melanoma

594 (IMLKGDNITL; listed as Homo sapiens) [compound 594]
Other relevant organs/ cancerous diseases: Esophageal Cancer | Additional organs/cancerous diseases: Uterine Cancer

SLLEQGKEPWMV (listed as Homo sapiens) [SEQ ID NO.: 54]
number of samples with detectable presentation of the peptide (brain cancers): 2 | number of samples with detectable presentation of the peptide (breast cancers): 1 | number of samples with detectable presentation of the peptide (cancer tissues, total): 18 | number of samples with detectable presentation of the peptide [1]: 1 | number of samples with detectable presentation of the peptide (gallbladder cancer): 1 | number of samples with detectable presentation of the peptide [2]: 1 | number of samples with detectable presentation of the peptide (liver cancers): 2 | number of samples with detectable presentation of the peptide (lung cancers): 7 | number of samples with detectable presentation of the peptide (lymph node cancers): 1 | number of samples with detectable presentation of the peptide (urinary bladder cancers): 1

272 (ALGNTVPAV; listed as Homo sapiens) [compound 272]
Other relevant organs/ cancerous diseases: PC, Leukemia, Endometrium

485 (NVPDSFNEV; listed as Homo sapiens) [compound 485]
Other relevant organs/ cancerous diseases: Stomach

365 (YVIDQGETDVYV; listed as Homo sapiens) [compound 365]
Other relevant organs/ cancerous diseases: Leukemia, Melanoma | Additional organs/cancerous diseases: CLL, Urinary Bladder Cancer, NHL

609 (ALWKQLLEL; listed as Homo sapiens) [compound 609]
Additional organs/cancerous diseases: CRC, Esophageal Cancer, Uterine Cancer

383 (ALLELENSVTL; listed as Homo sapiens) [compound 383]
Other relevant organs/ cancerous diseases: HCC

214 (FLLDLDPLLL; listed as Homo sapiens) [compound 214]
Other relevant organs/ cancerous diseases: SCLC, HCC, Leukemia, Uterine Cancer
